Measurements as given in the supplement of paper PMC10849652.
This is one part of the list.

Protein sequences, listed by entry. Tags and fused reporters are not part of them. Lines headed by an entry give the natural chain unless they say otherwise; changes in a name come on top.
UniProt Q9NNW5: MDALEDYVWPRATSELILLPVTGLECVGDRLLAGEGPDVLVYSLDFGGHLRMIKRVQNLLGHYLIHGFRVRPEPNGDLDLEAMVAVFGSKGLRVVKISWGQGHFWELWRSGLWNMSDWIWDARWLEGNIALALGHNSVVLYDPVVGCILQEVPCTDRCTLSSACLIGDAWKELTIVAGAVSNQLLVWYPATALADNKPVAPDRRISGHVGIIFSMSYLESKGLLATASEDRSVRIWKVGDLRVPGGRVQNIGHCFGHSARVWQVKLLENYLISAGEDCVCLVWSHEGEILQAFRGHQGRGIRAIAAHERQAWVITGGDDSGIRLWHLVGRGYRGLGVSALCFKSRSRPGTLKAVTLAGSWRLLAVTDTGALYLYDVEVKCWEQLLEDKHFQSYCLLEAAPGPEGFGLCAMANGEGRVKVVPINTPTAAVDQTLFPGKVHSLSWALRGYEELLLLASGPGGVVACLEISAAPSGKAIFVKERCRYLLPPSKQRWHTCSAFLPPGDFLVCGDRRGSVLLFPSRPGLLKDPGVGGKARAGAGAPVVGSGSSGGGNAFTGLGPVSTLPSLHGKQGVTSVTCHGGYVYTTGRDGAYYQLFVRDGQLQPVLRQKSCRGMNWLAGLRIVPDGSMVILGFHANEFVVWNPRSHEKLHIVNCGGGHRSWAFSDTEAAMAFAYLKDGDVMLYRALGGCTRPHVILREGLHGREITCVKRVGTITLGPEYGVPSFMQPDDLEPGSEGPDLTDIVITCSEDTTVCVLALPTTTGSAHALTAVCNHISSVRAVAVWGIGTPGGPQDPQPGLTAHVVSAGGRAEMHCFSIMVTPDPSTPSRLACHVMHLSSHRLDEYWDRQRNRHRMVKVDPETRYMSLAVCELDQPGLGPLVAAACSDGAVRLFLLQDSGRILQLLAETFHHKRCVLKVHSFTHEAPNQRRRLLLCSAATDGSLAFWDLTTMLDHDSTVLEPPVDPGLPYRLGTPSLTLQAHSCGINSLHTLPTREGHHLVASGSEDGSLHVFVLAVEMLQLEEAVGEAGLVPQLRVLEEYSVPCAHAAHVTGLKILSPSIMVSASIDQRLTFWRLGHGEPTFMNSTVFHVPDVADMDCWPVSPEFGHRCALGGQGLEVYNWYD
UniProt Q9BRG1: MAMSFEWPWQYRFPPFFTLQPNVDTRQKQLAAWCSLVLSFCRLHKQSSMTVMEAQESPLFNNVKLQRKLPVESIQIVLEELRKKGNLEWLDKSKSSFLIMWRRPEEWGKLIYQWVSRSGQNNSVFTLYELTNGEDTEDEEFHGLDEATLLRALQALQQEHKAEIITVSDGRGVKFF
UniProt Q9NW82: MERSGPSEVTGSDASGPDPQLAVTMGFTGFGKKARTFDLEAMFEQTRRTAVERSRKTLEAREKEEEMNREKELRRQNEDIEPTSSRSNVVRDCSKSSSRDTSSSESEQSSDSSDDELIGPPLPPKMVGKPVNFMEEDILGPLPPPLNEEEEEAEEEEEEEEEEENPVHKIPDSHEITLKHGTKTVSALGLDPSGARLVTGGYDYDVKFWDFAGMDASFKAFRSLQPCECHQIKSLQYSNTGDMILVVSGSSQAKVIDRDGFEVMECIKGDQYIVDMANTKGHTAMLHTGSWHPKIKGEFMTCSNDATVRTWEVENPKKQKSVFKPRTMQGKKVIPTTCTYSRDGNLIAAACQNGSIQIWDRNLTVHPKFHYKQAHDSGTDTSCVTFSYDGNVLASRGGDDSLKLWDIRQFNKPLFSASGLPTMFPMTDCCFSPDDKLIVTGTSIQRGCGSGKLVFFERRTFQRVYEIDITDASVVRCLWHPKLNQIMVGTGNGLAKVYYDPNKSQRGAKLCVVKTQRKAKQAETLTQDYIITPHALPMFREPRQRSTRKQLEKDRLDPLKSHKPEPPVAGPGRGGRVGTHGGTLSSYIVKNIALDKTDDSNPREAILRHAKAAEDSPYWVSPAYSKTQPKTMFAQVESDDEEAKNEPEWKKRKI
UniProt P04004: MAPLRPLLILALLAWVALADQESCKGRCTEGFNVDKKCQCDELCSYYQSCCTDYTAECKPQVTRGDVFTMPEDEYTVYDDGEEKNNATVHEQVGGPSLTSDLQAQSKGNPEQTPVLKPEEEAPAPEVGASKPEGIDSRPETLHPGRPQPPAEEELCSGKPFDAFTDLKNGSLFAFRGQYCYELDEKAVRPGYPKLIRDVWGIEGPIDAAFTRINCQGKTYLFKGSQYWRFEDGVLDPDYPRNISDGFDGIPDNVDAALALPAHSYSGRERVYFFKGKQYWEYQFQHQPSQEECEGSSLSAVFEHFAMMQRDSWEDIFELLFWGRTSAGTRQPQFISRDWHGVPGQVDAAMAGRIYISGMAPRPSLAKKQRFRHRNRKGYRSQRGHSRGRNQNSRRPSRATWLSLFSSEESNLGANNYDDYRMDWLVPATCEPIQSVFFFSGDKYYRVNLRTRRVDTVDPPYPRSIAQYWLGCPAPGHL
UniProt Q96FK6: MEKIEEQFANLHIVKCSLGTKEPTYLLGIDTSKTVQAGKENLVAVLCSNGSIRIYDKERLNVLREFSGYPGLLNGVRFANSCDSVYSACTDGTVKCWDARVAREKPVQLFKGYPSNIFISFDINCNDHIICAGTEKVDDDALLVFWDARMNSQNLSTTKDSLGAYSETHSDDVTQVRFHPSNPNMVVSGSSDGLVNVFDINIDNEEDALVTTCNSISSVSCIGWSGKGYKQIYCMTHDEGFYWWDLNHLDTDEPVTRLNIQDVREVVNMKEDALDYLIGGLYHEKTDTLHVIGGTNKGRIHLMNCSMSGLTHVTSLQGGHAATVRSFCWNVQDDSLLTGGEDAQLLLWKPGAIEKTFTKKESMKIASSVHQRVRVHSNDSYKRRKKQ
UniProt Q6P4I2: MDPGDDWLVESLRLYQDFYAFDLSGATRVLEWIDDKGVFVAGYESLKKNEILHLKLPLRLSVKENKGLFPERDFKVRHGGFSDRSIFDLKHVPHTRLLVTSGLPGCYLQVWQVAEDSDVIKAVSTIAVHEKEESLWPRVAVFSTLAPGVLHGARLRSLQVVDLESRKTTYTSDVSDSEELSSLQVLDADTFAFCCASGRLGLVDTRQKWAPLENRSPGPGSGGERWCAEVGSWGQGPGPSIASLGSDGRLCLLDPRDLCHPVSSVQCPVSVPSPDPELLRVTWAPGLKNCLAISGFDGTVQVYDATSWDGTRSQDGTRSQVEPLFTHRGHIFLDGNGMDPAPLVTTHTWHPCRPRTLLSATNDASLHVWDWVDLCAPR
UniProt Q8IV63: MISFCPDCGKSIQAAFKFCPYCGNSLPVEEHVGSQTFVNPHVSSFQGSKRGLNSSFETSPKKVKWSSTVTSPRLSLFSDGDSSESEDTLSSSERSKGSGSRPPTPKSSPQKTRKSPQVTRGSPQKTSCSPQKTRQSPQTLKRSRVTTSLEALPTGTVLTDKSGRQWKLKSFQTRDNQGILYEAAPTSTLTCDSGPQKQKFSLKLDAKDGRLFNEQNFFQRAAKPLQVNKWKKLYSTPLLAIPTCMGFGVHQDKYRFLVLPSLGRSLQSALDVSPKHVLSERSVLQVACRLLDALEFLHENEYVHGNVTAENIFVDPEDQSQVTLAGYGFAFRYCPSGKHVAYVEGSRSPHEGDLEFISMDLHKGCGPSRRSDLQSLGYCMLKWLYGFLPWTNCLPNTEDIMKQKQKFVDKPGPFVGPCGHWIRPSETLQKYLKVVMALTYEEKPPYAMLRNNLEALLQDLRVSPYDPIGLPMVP
UniProt Q9BUR4: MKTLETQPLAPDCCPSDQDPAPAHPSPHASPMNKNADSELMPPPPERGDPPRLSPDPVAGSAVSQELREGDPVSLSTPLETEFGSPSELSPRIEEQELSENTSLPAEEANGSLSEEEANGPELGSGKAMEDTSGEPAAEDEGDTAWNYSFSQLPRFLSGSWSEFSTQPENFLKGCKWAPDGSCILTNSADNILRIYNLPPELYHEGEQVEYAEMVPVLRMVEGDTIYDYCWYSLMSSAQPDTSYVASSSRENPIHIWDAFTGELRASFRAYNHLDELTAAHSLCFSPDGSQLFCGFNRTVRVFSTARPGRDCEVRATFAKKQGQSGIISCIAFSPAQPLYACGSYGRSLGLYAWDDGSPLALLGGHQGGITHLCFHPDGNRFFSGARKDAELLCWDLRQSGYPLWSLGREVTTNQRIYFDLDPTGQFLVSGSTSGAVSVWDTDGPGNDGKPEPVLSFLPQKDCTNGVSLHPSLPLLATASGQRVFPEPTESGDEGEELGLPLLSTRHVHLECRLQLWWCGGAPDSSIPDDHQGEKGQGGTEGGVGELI
UniProt Q9H9H4: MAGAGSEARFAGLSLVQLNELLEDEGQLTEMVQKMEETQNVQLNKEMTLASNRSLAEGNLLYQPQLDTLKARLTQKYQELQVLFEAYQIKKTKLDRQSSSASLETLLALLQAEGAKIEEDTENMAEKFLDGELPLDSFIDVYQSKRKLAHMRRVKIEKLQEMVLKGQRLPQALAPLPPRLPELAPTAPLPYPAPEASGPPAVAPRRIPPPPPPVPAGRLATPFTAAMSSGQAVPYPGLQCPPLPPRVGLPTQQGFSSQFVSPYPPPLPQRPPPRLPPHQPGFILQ
UniProt Q9Y6W5, whole entry, looked up: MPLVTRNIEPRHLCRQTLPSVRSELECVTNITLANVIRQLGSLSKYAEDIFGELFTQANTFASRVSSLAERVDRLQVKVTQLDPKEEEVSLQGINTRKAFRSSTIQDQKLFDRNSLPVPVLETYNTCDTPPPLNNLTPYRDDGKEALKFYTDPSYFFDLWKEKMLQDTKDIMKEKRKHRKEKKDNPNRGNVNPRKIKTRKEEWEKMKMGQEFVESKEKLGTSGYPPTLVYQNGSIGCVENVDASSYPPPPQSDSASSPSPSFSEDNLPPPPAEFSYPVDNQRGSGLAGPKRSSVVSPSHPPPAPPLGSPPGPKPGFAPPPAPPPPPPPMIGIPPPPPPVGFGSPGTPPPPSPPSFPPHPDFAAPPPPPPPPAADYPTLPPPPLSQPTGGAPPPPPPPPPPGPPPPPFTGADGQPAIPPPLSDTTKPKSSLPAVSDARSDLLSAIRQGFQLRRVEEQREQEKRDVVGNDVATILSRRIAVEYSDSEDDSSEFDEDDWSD
UniProt Q15061: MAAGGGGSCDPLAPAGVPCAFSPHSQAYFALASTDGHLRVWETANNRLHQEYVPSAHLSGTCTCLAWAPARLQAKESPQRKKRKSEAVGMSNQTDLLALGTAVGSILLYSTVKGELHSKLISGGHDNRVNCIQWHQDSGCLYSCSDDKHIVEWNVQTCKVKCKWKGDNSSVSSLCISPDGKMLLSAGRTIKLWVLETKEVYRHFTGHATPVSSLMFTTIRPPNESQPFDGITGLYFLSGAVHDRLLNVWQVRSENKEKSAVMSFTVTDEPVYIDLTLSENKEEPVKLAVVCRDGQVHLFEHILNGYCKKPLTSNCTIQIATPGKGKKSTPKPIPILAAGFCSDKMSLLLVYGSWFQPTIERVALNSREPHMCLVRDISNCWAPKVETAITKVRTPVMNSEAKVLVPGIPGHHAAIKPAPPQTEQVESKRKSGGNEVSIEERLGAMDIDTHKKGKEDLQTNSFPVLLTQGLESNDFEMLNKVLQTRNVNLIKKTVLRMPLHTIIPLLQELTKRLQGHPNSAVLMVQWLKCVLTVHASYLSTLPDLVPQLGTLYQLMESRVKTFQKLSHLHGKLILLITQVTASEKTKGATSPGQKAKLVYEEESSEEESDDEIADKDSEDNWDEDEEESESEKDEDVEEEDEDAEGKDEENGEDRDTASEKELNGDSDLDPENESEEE
UniProt Q9BQA1, whole entry, looked up: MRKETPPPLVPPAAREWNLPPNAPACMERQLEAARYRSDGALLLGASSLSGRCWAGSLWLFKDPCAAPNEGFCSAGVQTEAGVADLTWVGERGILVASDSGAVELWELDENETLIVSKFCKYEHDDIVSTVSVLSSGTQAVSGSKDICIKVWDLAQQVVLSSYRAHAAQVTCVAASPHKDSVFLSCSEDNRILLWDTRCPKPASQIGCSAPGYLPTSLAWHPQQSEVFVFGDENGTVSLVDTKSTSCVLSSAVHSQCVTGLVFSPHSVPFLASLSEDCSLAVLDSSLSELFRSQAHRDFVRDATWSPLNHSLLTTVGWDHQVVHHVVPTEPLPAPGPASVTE

How the values were obtained:
Test in all cases: log2 fold change, soluble protein after heating vs DMSO (PISA); higher = thermal stabilisation; K562 cells, 10 uM, 30 min; active = over 0.2 and 3.5 SD of the protein, either way, in both replicates (recomputed)
[1] = compound: CC1=C(C=C(C=C1)NC(=O)C2=CC(=CC=C2)C(C)(C)C#N)NC3=CC4=C(C=C3)N=CN(C4=O)C
Method in brief: (§1)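 K562 cells at 2×10^6 cells/mL were given 10 μM compound for 30 min. Aliquots then went through 3 min of heating across 48°C-58°C, were pooled, and were extracted in PBS with 0.5% NP-40 at 4°C, and the supernatant after 21,000xg for 90 min was quantified by TMTpro 16plex LC-MS/MS with channel sums equalised. Thermal stability relative to control samples, from duplicates, is given as log2 fold change.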

[2] = compound: CC1=C(C=C(C=C1)NC(=O)C2=CC(=CC=C2)N(C)C)NC(=O)C3=CC=C(C=C3)O
Method in brief: as §1

[3] = compound: CC1=CC=C(C=C1)SC2=C3C=C(SC3=CN=C2)C(=O)N
Method in brief: as §1

[4] = compound: CC1=NC(=CC=C1)C2=C(N=C(N2)C(C)(C)C)C3=CC4=NC=CN=C4C=C3
Method in brief: as §1

Nexturastat A = compound: CCCCN(Cc1ccc(C(=O)NO)cc1)C(=O)Nc1ccccc1 [Nexturastat A]
Method in brief: as §1

vemurafenib = compound: CCCS(=O)(=O)Nc1ccc(F)c(C(=O)c2c[nH]c3ncc(-c4ccc(Cl)cc4)cc23)c1F [vemurafenib]
Method in brief: as §1

[5] = compound: CCCS(=O)(=O)Nc1ccc(F)c(C(=O)c2c[nH]c3ncc(Cl)cc23)c1F
Method in brief: as §1

[6] = compound: CCCc1cc(C)[nH]c(=O)c1CNC(=O)c1cc(-c2ccnc(N3CCN(C)CC3)c2)cc2c1cnn2C(C)C
Method in brief: as §1

givinostat = compound: CCN(CC)Cc1ccc2cc(COC(=O)Nc3ccc(C(=O)NO)cc3)ccc2c1 [givinostat]
Method in brief: as §1

barasertib = compound: CCN(CCCOc1ccc2c(Nc3cc(CC(=O)Nc4cccc(F)c4)[nH]n3)ncnc2c1)CCOP(=O)(O)O [barasertib]
Method in brief: as §1

[7] = compound: CC[C@@H]1C(=O)N(C)c2cnc(Nc3ccc(C(=O)NC4CCN(C)CC4)cc3OC)nc2N1C1CCCC1
Method in brief: as §1

volasertib = compound: CC[C@@H]1C(=O)N(C)c2cnc(Nc3ccc(C(=O)N[C@H]4CC[C@H](N5CCN(CC6CC6)CC5)CC4)cc3OC)nc2N1C(C)C [volasertib]
Method in brief: as §1

[8] = compound: CC[C@H](C)N1C=C(C2=C(C=C(C=C21)C3=CN=C(C=C3)N4CCNCC4)C(=O)NCC5=C(C=C(NC5=O)C)C)C
Method in brief: as §1

epoxomicin = compound: CC[C@H](C)[C@@H](C(=O)N[C@@H]([C@@H](C)O)C(=O)N[C@@H](CC(C)C)C(=O)[C@]1(CO1)C)NC(=O)[C@H]([C@@H](C)CC)N(C)C(=O)C [epoxomicin]
Method in brief: as §1

[9] = compound: CCn1c(C(=O)N(C2CC2)C2CC2)cc2c3c(ncn3C)c(Nc3cc(C)n(C)n3)nc21
Method in brief: as §1

[10] = compound: CCn1cc(-c2ccnc3[nH]c(-c4cccc(CN(C)C)c4)cc23)c(-c2ccc(NC(=O)N(C)C)cc2)n1
Method in brief: as §1

[11] = compound: CN(C)CC(=O)Nc1ccc2[nH]c(=O)c3ccccc3c2c1
Method in brief: as §1

rosiglitazone = compound: CN(CCOC1=CC=C(C=C1)C[C@H]2C(=O)NC(=O)S2)C3=CC=CC=N3 (racemic) [rosiglitazone]
Method in brief: as §1

[12] = compound: CN1C2=C(C3=C1C(=O)N(N=C3)CC4=CC(=CC=C4)N)SC(=C2)S(=O)C
Method in brief: as §1

[13] = compound: CN1CCC(CNc2ccc3ncc(-c4cccc(OC(F)(F)F)c4)n3n2)CC1
Method in brief: as §1

Row | Target | log2 fold change [1] | log2 fold change [2] | log2 fold change [3] | log2 fold change [4] | log2 fold change (Nexturastat A) | log2 fold change (vemurafenib) | log2 fold change [5] | log2 fold change [6] | log2 fold change (givinostat) | log2 fold change (barasertib) | log2 fold change [7] | log2 fold change (volasertib) | log2 fold change [8] | log2 fold change (epoxomicin) | log2 fold change [9] | log2 fold change [10] | log2 fold change [11] | log2 fold change (rosiglitazone) | log2 fold change [12] | log2 fold change [13]
1 | VPS13A (UniProt Q96RL7) | inactive: -0.011 | inactive: 0.031 | inactive: 0.008 | inactive: 0.002 | inactive: -0.039 | inactive: -0.046 | inactive: 0.016 | inactive: -0.02 | inactive: 0.011 | inactive: -0.008 | inactive: 0.037 | inactive: -0.031 | inactive: 0.008 | inactive: -0.012 | inactive: -0.02 | inactive: 0.015 | inactive: 0.023 | inactive: 0 | inactive: -0.037 | inactive: -0.032
2 | WDR6 (UniProt Q9NNW5) | inactive: -0.011 | inactive: 0.014 | inactive: -0.007 | inactive: 0.019 | inactive: 0.057 | inactive: -0.036 | inactive: 0.041 | inactive: 0.005 | inactive: 0.016 | inactive: 0.015 | inactive: -0.017 | inactive: 0.053 | inactive: -0.001 | inactive: -0.009 | inactive: -0.006 | inactive: -0.029 | inactive: -0.014 | inactive: -0.031 | inactive: -0.024 | inactive: 0.125
3 | VPS25 (UniProt Q9BRG1) | inactive: 0.024 | inactive: -0.018 | inactive: 0.027 | inactive: 0.019 | inactive: -0.037 | inactive: 0.041 | inactive: 0.015 | inactive: -0.044 | inactive: -0.007 | inactive: 0.023 | inactive: 0.013 | inactive: -0.069 | inactive: 0.021 | inactive: 0.002 | inactive: 0.019 | inactive: -0.019 | inactive: 0.005 | inactive: 0.038 | inactive: -0.102 | inactive: -0.027
4 | WDR70 (UniProt Q9NW82) | inactive: 0.011 | inactive: 0.031 | inactive: -0.001 | inactive: 0.007 | inactive: -0.085 | inactive: -0.013 | inactive: 0.003 | inactive: -0.029 | inactive: -0.001 | inactive: 0.007 | inactive: 0.025 | inactive: -0.007 | inactive: 0.017 | inactive: 0.05 | inactive: 0.003 | inactive: -0.021 | inactive: -0.005 | inactive: 0.025 | inactive: -0.07 | inactive: 0.04
5 | VTN (UniProt P04004) | inactive: -0.132 | inactive: 0.265 | inactive: 0.064 | inactive: -0.085 | inactive: 0.146 | inactive: -0.043 | inactive: -0.105 | inactive: -0.447 | inactive: 0.091 | inactive: -0.017 | inactive: 0.025 | inactive: 0.181 | inactive: -0.018 | inactive: -0.335 | inactive: 0.042 | – | inactive: -0.158 | inactive: 0.107 | inactive: 0.38 | –
6 | WDR89 (UniProt Q96FK6) | inactive: -0.02 | inactive: 0.019 | inactive: -0.005 | inactive: 0.022 | inactive: -0.031 | inactive: -0.025 | inactive: -0.023 | inactive: 0.074 | inactive: 0.008 | inactive: -0.008 | inactive: 0.052 | inactive: -0.007 | inactive: -0.017 | inactive: -0.014 | inactive: 0.009 | inactive: 0 | inactive: -0.002 | inactive: 0.038 | inactive: -0.02 | inactive: -0.057
7 | WDR73 (UniProt Q6P4I2) | inactive: -0.04 | inactive: 0.011 | inactive: -0.01 | inactive: -0.019 | inactive: -0.065 | inactive: -0.013 | inactive: -0.025 | inactive: -0.024 | inactive: -0.028 | inactive: 0.009 | inactive: 0.058 | inactive: 0.021 | inactive: 0 | inactive: 0.002 | inactive: -0.016 | inactive: -0.026 | inactive: -0.021 | inactive: 0.019 | inactive: -0.061 | inactive: 0.067
8 | VRK3 (UniProt Q8IV63) | inactive: 0.097 | inactive: -0.211 | inactive: 0.018 | inactive: 0.115 | inactive: 0.006 | inactive: 0.067 | inactive: 0.032 | inactive: -0.066 | inactive: 0.096 | inactive: 0.099 | inactive: 0.084 | inactive: 0.027 | inactive: 0.073 | inactive: 0.031 | inactive: 0.004 | inactive: -0.095 | inactive: 0.034 | inactive: 0.004 | – | inactive: -0.049
9 | WDR12 (UniProt Q9GZL7) | inactive: -0.009 | inactive: 0.007 | inactive: 0.03 | inactive: 0.025 | inactive: -0.043 | inactive: -0.044 | inactive: -0.005 | inactive: -0.036 | inactive: 0.004 | inactive: -0.007 | inactive: 0.009 | inactive: -0.053 | inactive: -0.007 | inactive: 0.005 | inactive: 0.024 | inactive: 0 | inactive: -0.007 | inactive: 0.012 | inactive: -0.017 | inactive: -0.035
10 | WRAP53 (UniProt Q9BUR4) | inactive: 0.039 | inactive: 0 | inactive: -0.144 | inactive: -0.069 | inactive: 0.011 | inactive: -0.075 | inactive: -0.114 | inactive: 0.076 | inactive: 0.015 | inactive: 0.037 | inactive: 0.123 | inactive: 0.025 | inactive: -0.034 | inactive: -0.073 | inactive: 0.031 | inactive: -0.03 | inactive: -0.034 | inactive: 0.016 | inactive: 0.065 | inactive: 0.067
11 | VKORC1L1, A0A3B3ISV4 | inactive: 0.039 | inactive: -0.1 | inactive: -0.018 | inactive: 0.053 | inactive: -0.075 | inactive: -0.111 | inactive: 0 | inactive: -0.096 | inactive: -0.005 | inactive: 0.037 | inactive: 0.083 | inactive: -0.016 | inactive: -0.028 | inactive: -0.035 | inactive: 0.009 | inactive: 0.068 | inactive: 0.01 | inactive: 0.016 | inactive: -0.148 | inactive: 0.121
12 | VPS37B (UniProt Q9H9H4) | inactive: 0.002 | inactive: -0.046 | inactive: 0.253 | inactive: 0.028 | inactive: 0.009 | inactive: 0.173 | inactive: 0.156 | inactive: 0.017 | inactive: 0.055 | inactive: 0.034 | inactive: -0.223 | inactive: -0.086 | inactive: 0.183 | inactive: 0.042 | inactive: -0.09 | inactive: -0.269 | inactive: 0.187 | inactive: 0.051 | inactive: 0.027 | inactive: 0.109
13 | WASF2 (UniProt Q9Y6W5) | inactive: 0.007 | inactive: 0.003 | inactive: -0.001 | inactive: 0.024 | inactive: 0.131 | inactive: -0.02 | inactive: -0.019 | inactive: 0.014 | inactive: -0.002 | inactive: -0.02 | inactive: -0.036 | inactive: -0.104 | inactive: 0.015 | inactive: -0.014 | inactive: 0.071 | inactive: 0.039 | inactive: -0.029 | inactive: -0.011 | inactive: -0.029 | inactive: -0.042
14 | WDR43 (UniProt Q15061) | inactive: -0.015 | inactive: 0.018 | inactive: 0.009 | inactive: -0.001 | inactive: -0.097 | inactive: -0.027 | inactive: 0.012 | inactive: -0.061 | inactive: -0.007 | inactive: -0.033 | inactive: 0.029 | inactive: -0.029 | inactive: -0.04 | inactive: -0.026 | – | inactive: 0.036 | inactive: 0.004 | – | inactive: -0.04 | inactive: 0.192
15 | WAPL isoform 3 (UniProt Q7Z5K2) | inactive: -0.038 | inactive: -0.109 | inactive: 0.056 | inactive: -0.006 | inactive: -0.134 | inactive: 0.097 | inactive: 0.083 | inactive: -0.054 | inactive: 0.149 | inactive: 0.201 | inactive: -0.183 | active: -0.61 | inactive: 0.164 | inactive: 0.101 | – | inactive: 0.015 | inactive: 0.104 | – | inactive: -0.018 | inactive: -0.246
16 | WDTC1 (UniProt Q8N5D0) | inactive: -0.093 | inactive: -0.133 | inactive: 0.023 | inactive: -0.188 | inactive: 0.043 | inactive: 0.008 | inactive: 0.08 | inactive: -0.041 | inactive: 0.113 | inactive: -0.011 | inactive: 0.051 | inactive: -0.236 | inactive: 0.339 | inactive: 0.078 | inactive: -0.042 | inactive: -0.021 | inactive: -0.056 | inactive: 0.007 | inactive: 0.075 | inactive: -0.018
17 | WDR77 (UniProt Q9BQA1) | inactive: 0.026 | inactive: -0.008 | inactive: -0.003 | inactive: 0.047 | inactive: -0.019 | inactive: 0.051 | inactive: 0.025 | inactive: 0.041 | inactive: -0.09 | inactive: 0.006 | inactive: -0.024 | inactive: -0.027 | inactive: 0.017 | inactive: 0.03 | inactive: -0.004 | inactive: 0.018 | inactive: 0.032 | inactive: 0 | inactive: -0.054 | inactive: 0.017

From entry 16 up to 17, as listed above:
Row | Target | log2 fold change [1] | log2 fold change [2] | log2 fold change [3] | log2 fold change [4] | log2 fold change (Nexturastat A) | log2 fold change (vemurafenib) | log2 fold change [5] | log2 fold change [6] | log2 fold change (givinostat) | log2 fold change (barasertib) | log2 fold change [7] | log2 fold change (volasertib) | log2 fold change [8] | log2 fold change (epoxomicin) | log2 fold change [9] | log2 fold change [10] | log2 fold change [11] | log2 fold change (rosiglitazone) | log2 fold change [12] | log2 fold change [13]
16 | WDTC1 (UniProt Q8N5D0) | inactive: -0.093 | inactive: -0.133 | inactive: 0.023 | inactive: -0.188 | inactive: 0.043 | inactive: 0.008 | inactive: 0.08 | inactive: -0.041 | inactive: 0.113 | inactive: -0.011 | inactive: 0.051 | inactive: -0.236 | inactive: 0.339 | inactive: 0.078 | inactive: -0.042 | inactive: -0.021 | inactive: -0.056 | inactive: 0.007 | inactive: 0.075 | inactive: -0.018
17 | WDR77 (UniProt Q9BQA1) | inactive: 0.026 | inactive: -0.008 | inactive: -0.003 | inactive: 0.047 | inactive: -0.019 | inactive: 0.051 | inactive: 0.025 | inactive: 0.041 | inactive: -0.09 | inactive: 0.006 | inactive: -0.024 | inactive: -0.027 | inactive: 0.017 | inactive: 0.03 | inactive: -0.004 | inactive: 0.018 | inactive: 0.032 | inactive: 0 | inactive: -0.054 | inactive: 0.017
